# Laboratory results: PubChem BioAssay AID1259424 (University of Nebraska Medical Center, 2018)
# Test: 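Rank knockdowns across the genome by resemblance to the KSR1 depletion profile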 (primary screen)
# Cell system: human HCT116 colon cancer cells
# Reagents: siRNA pool against human genes, 50 nM
# Detection: 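Log2 levels of six mRNAs (branched-DNA multiplex), adjusted by two reference genes and the non-targeting median, then scored against the average KSR1 knockdown pattern as Pearson r and euclidean distance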
# Scale: mean correlation with KSR1 profile and KSR1 correlation: higher = expression change more like KSR1 knockdown; mean distance from KSR1 profile: higher = expression change less like KSR1 knockdown
# In all, the deposit lists about 14,000 reagents; this is a random part of them. 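Higher correlation or smaller distance means closer resemblance to KSR1 loss; control wells, including KSR1 knockdowns, recur on many plates.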 Not all columns of the deposit are shown. No sequences are given here. Not stated in the record: the time to read-out.
gene symbol,mean correlation with KSR1 profile,mean distance from KSR1 profile,"KSR1 correlation, replicate 1"
GINS3 (GINS complex subunit 3),0.381,1.43,0.462
RFX4 (regulatory factor X4),0.43,1.14,0.412
DKK3 (dickkopf Wnt signaling pathway inhibitor 3),-0.474,2.44,-0.557
SHB (SH2 domain containing adaptor protein B),-0.0129,1.97,0.271
NUP153 (nucleoporin 153),-0.513,1.83,-0.482
PRDX3 (peroxiredoxin 3),-0.0972,1.6,0.109
CST2 (cystatin SA),-0.472,2.06,-0.295
EFHC2 (EF-hand domain containing 2),0.0839,3.01,-0.436
IL17RB (interleukin 17 receptor B),0.744,1.07,0.843
GDA (guanine deaminase),-0.158,1.64,0.205
MAGEA6 (MAGE family member A6),0.0184,1.92,-0.363
MATK (megakaryocyte-associated tyrosine kinase),0.732,1.34,0.792
ABCD1 (ATP binding cassette subfamily D member 1),-0.328,1.92,-0.359
IRS4 (insulin receptor substrate 4),0.499,0.784,0.239
KCNJ15 (potassium inwardly rectifying channel subfamily J member 15),-0.458,1.15,-0.417
TCEAL9 (transcription elongation factor A like 9),-0.505,2.65,-0.303
ZNF484 (zinc finger protein 484),0.741,1.54,0.604
COL9A1 (collagen type IX alpha 1 chain),-0.333,3.33,-0.318
IRF4 (interferon regulatory factor 4),0.191,2.67,0.303
CCL8 (C-C motif chemokine ligand 8),-0.372,1.63,-0.218
CAMK2G (calcium/calmodulin dependent protein kinase II gamma),0.269,2.31,0.226
AK2 (adenylate kinase 2),0.054,2.62,0.273
SLC71A1,-0.0071,1.95,-0.2
ARHGAP8 (Rho GTPase activating protein 8),0.0124,1.54,-0.378
CDK14 (cyclin dependent kinase 14),-0.285,3.27,0.119
FNDC1 (fibronectin type III domain containing 1),0.777,1.48,0.78
ZDHHC7 (zDHHC palmitoyltransferase 7),-0.229,1.47,-0.0134
FECH (ferrochelatase),0.0553,2.09,0.0612
VN1R5 (vomeronasal 1 receptor 5 (gene/pseudogene)),-0.639,2.93,0.29
CLIP3 (CAP-Gly domain containing linker protein 3),-0.889,2.26,-0.885
ATF4 (activating transcription factor 4),-0.0603,2.81,-0.0136
RANBP10 (RAN binding protein 10),-0.27,2.16,-0.297
PECAM1 (platelet and endothelial cell adhesion molecule 1),0.576,0.993,0.603
MMP26 (matrix metallopeptidase 26),-0.297,2.56,-0.242
ACRV1 (acrosomal vesicle protein 1),-0.36,4.25,-0.343
TYK2 (tyrosine kinase 2),0.251,4.97,0.48
PRKAG1 (protein kinase AMP-activated non-catalytic subunit gamma 1),0.819,1.04,0.948
CHUK,-0.0688,3.48,-0.0694
KCNA7 (potassium voltage-gated channel subfamily A member 7),-0.45,3.01,-0.505
EBF2 (EBF transcription factor 2),-0.0977,2.25,-0.489
BCL2A1 (BCL2 related protein A1),-0.233,1.26,-0.475
YAE1 (YAE1 maturation factor of ABCE1),-0.203,3.43,-0.493
FRMD8 (FERM domain containing 8),0.745,2.14,0.526
TRAF4 (TNF receptor associated factor 4),0.176,1.14,-0.0891
LTK (leukocyte receptor tyrosine kinase),0.223,1.94,0.468
SLC1A4,0.0713,1.66,0.0901
GYG1 (glycogenin 1),-0.505,2.97,-0.437
BRS3 (bombesin receptor subtype 3),0.587,1.91,0.613
SUB1 (SUB1 regulator of transcription),0.174,2.38,0.113
SLC6A7,0.0537,2.29,-0.169
SVIL (supervillin),0.45,1.74,0.255
SUV39H1 (SUV39H1 histone lysine methyltransferase),0.158,1.67,-0.1
NEMF (nuclear export mediator factor),-0.269,1.63,0.129
TSPAN32 (tetraspanin 32),-0.515,1.73,-0.385
BZW1 (basic leucine zipper and W2 domains 1),0.324,2.21,0.367
UGT1A5 (UDP glucuronosyltransferase family 1 member A5),0.632,2.29,0.616
H1-10 (H1.10 linker histone),-0.119,1.95,0.0728
ZAP70 (zeta chain of T cell receptor associated protein kinase 70),0.245,1.75,0.654
UCK1 (uridine-cytidine kinase 1),0.0598,1.67,0.334
KIF20B (kinesin family member 20B),-0.428,1.49,-0.223
SZRD1 (SUZ RNA binding domain containing 1),-0.387,3.26,-0.106
ZSWIM5 (zinc finger SWIM-type containing 5),0.842,0.542,0.623
SMC1B (structural maintenance of chromosomes 1B),0.472,1.71,0.349

In a second layout: results already given.
| gene symbol | mean correlation with KSR1 profile | mean distance from KSR1 profile | KSR1 correlation, replicate 1 |
| --- | --- | --- | --- |
| CCL8 (C-C motif chemokine ligand 8) | -0.372 | 1.63 | -0.218 |
| CAMK2G (calcium/calmodulin dependent protein kinase II gamma) | 0.269 | 2.31 | 0.226 |
| AK2 (adenylate kinase 2) | 0.054 | 2.62 | 0.273 |
| SLC71A1 | -0.0071 | 1.95 | -0.2 |
| ARHGAP8 (Rho GTPase activating protein 8) | 0.0124 | 1.54 | -0.378 |
| CDK14 (cyclin dependent kinase 14) | -0.285 | 3.27 | 0.119 |
| FNDC1 (fibronectin type III domain containing 1) | 0.777 | 1.48 | 0.78 |
| ZDHHC7 (zDHHC palmitoyltransferase 7) | -0.229 | 1.47 | -0.0134 |
| FECH (ferrochelatase) | 0.0553 | 2.09 | 0.0612 |
